Results from the supplement of paper PMC3334620.
Over roughly 33,000 sequences, “E-score (-0.5 to 0.5)” has its median near -8e-05; the highest 2% begin near 0.23. Some of the results follow.

Target: T1, Nrg2 (UniProt P38082)
T1 sequence: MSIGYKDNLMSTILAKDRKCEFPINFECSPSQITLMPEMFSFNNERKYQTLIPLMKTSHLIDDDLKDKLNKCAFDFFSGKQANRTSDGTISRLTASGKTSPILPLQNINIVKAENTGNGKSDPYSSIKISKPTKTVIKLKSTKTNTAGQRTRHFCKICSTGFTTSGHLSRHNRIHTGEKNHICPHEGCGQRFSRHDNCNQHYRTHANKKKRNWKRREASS
Assay: PBM E-score (8-mer binding enrichment) (E-score (-0.5 to 0.5)); higher = stronger / more preferred TF binding
Conditions: protein concentration: 100 nM; construct: GST-full length
Outline: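 Universal all-10-mer Agilent arrays, fresh or stripped once, were converted to double-stranded form by primer extension. GST-tagged yeast transcription factors from PURExpress in vitro transcription/translation, full-length or DNA-binding domain only, were applied at about 100-200 nM and detected with fluorescent anti-GST. After masliner normalisation, the Universal PBM Analysis Suite scored each ungapped eight-base word together with its reverse complement by E-score.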

| Sequence | PBM E-score |
| --- | --- |
| CTATCCCC | -0.288 |
| CGCACTAG | 0.00674 |
| AATTGACC | 0.051 |
| AGGTTCCC | -0.135 |
| CAGGACGA | 0.0583 |
| CGCTCTAG | -0.298 |
| AAACTGCA | -0.0357 |
| AGAGCTAT | -0.245 |
| ACCGGAAG | 0.0367 |
| GTCTACAC | -0.0646 |
| CATCCCTA | 0.0926 |
| CCTACTGC | -0.0675 |
| AACTAACA | 0.131 |
| GTCAGTAA | -0.0564 |
| AATATCCG | 0.101 |
| AACCACTC | 0.0139 |
| AGTAACCA | 0.0286 |
| AAGCATCT | -0.0437 |
| CGAGCGAC | -0.0894 |
| CCCTATCA | 0.0672 |
| ACCTATGA | -0.169 |
| ACAATTGT | 0.113 |
| CCCCTCAA | 0.103 |
| AAGGTGTG | 0.045 |
| GGGCTTAC | -0.0704 |

| Sequence | PBM E-score |
| --- | --- |
| ACAGGGCT | -0.0411 |
| GTACCCCA | -0.00269 |
| CTACGTCC | -0.121 |
| ACATTACC | -0.104 |
| ATTTAAGA | -0.0351 |
| ACGTAGCC | -0.314 |
| ATTAGCCA | 0.0757 |
| CCGGGGAC | -0.0685 |
| GTCTATCA | -0.0454 |
| ACATGATA | 0.125 |
| ACAGGAAA | 0.141 |
| ACCTCGAA | -0.00777 |
| GCTGTTCA | -0.0958 |
| GAATACAC | -0.0524 |
| ACAGAATA | 0.148 |
| TAGGACAA | 0.049 |
| GCAAGTGA | -0.0727 |
| AGGTTACA | -0.0315 |
| CCCGTGGC | -0.196 |
| AATCCAAA | -0.0293 |
| GCCACCTA | -0.0704 |
| CATGGGCA | 0.0918 |
| GTGCAGCA | -0.172 |
| AATTCACG | -0.00202 |
| ACACGTAC | -0.0321 |

| Sequence | PBM E-score |
| --- | --- |
| AGAGGCGA | -0.0974 |
| CAACGGTC | 0.0208 |
| AGAGGCAA | 0.0182 |
| ACCTTCTA | -0.0686 |
| GCCCCATA | 0.106 |
| GGAGGCCA | -0.116 |
| GAGCAATC | -0.0279 |
| AGTGCTCG | -0.0208 |
| CCTACGCG | -0.0425 |
| GCTAGGAA | 0.0218 |
| CCAACAGA | 0.0183 |
| CAGAAAAA | 0.0239 |
| CACCTACC | -0.151 |
| GGGCTAAA | 0.0105 |
| ATCTCGAG | 0.0834 |
| CATTCTAG | -0.137 |
| ACACCGCT | -0.0814 |
| CGGGTTTA | 0.104 |
| AGCGGGGA | -0.194 |
| ACGACCAA | -0.12 |
| CTCGTGAC | -0.0993 |
| CCTGGCCG | 0.0485 |
| ACACTTCG | 0.113 |
| CACAGAGG | -0.0103 |
| GGACCTAC | -0.0192 |

A few values from above.
Value for AGGTTACA under PBM E-score: -0.0315
Value for CAACGGTC under PBM E-score: 0.0208
Value for GTCTATCA under PBM E-score: -0.0454
Value for GGGCTAAA under PBM E-score: 0.0105

(cont.)

| Sequence | PBM E-score |
| --- | --- |
| CCTATGCA | -0.0321 |
| AAATTTCT | -0.0155 |
| AGGTAATG | 0.0021 |
| GCTTGGAA | 0.0177 |
| AATTTAAA | 0.142 |
| GACCACGC | -0.0928 |
| CCACACGC | 0.0944 |
| TCTCGCCA | 0.013 |
| CGTTGTTC | 0.0424 |
| CAAGTAAA | -0.0616 |
| CGTGCTAC | -0.207 |
| ACCTGGTC | 0.135 |
| CTGGTAGA | -0.098 |
| ACAATTTC | 0.0969 |
| CATTCGGA | 0.0301 |
| CCATCCAA | -0.0545 |
| CGGGGTAA | -0.0761 |
| ATCTGCCG | 0.008 |
| CTCTGTAA | -0.215 |
| GCTTCCGA | 0.0136 |
| ATATGGTG | 0.0491 |
| CCAACTTC | -0.105 |
| GACCAGTA | -0.174 |
| GTGAATTA | 0.151 |
| ACCCCCAG | -0.291 |

| Sequence | PBM E-score |
| --- | --- |
| AGCTTCCA | 0.0217 |
| CTTAGAGC | -0.00176 |
| ACAGAGGT | 0.0138 |
| AGCGATAA | 0.0305 |
| GGGTGGTA | -0.0955 |
| CGTTGAAC | -0.141 |
| CGTAACAC | -0.0425 |
| ACAGGCCT | -0.155 |
| GACACCTC | 0.0684 |
| CACTCTTA | 0.0792 |
| CTTGAAAC | 0.0294 |
| ACTCCAGA | -0.0958 |
| GCGTGTCA | 0.0683 |
| GCCCGGGC | 0.0278 |
| ACTAGTAG | 0.0854 |
| AGAACGAT | 0.103 |
| CTTCGACA | -0.0858 |
| ATGCGCAC | 0.142 |
| CGGAATAC | 0.133 |
| CATCCTAG | -0.0406 |
| AGGAAGAG | -0.233 |
| ATCGTACA | 0.0896 |
| AGGTCTCA | 0.0451 |
| ACACTCTA | 0.0203 |
| TACTAAAA | 0.0854 |

Laid out differently: results already given.
Sequence	PBM E-score
AGAACGAT	0.103
CTTCGACA	-0.0858
ATGCGCAC	0.142
CGGAATAC	0.133
CATCCTAG	-0.0406
AGGAAGAG	-0.233

(next part)

| Sequence | PBM E-score |
| --- | --- |
| TCCTCACA | -0.0328 |
| ACGGAGAG | -0.0646 |
| ACCCGTCT | -0.0804 |
| AAATGTCA | -0.119 |
| GAGAGTGA | 0.133 |
| CCGAACGA | 0.0912 |
| GGGAAACA | 0.0372 |
| ATTTTTTA | 0.0804 |
| AATGTATG | 0.0522 |
| AGCCCGCG | -0.161 |
| TGTCGGAA | -0.0691 |
| GATCGCCA | -0.00362 |
| GACCGGAA | -0.033 |
| CATCCATG | -0.0336 |
| CAAACGAC | 0.161 |
| AGGGCGAA | -0.0411 |
| AAAGCGTG | -0.0834 |
| CCTGAGGC | -0.192 |
| CCAGCCCA | -0.283 |
| AACGGGGA | 0.108 |
| GCCAAGGA | -0.0732 |
| CGCTTTAC | -0.026 |
| CGTGTTTA | -0.013 |
| CGCGGACA | 0.108 |
| GCCTGCGA | -0.107 |

| Sequence | PBM E-score |
| --- | --- |
| AATGAACT | 0.149 |
| TCATCCAA | 0.106 |
| GCAATTGA | 0.118 |
| CTGTTAGC | -0.0913 |
| GCGGGAGA | -0.0486 |
| ACTAAATC | 0.153 |
| CACACGGC | -0.0233 |
| AAAGATGA | -0.0996 |
| CAGTATAG | 0.153 |
| GGAAGTGA | 0.103 |
| AGATTGAG | 0.0802 |
| AAGATGAC | -0.0214 |
| CAATCACC | 0.0523 |
| CAAAACGC | 0.154 |
| CGCGCGCC | 0.211 |
| ACAGAGGC | -0.172 |
| ATAAGTAC | 0.113 |
| CCAAGGCG | -0.0286 |
| ATTAAGGG | 0.178 |
| CGTTTTTC | -0.117 |
| CCGCAGAC | -0.105 |
| GACACCGC | 0.0182 |
